PubChem BioAssay AID1508588 – Peter MacCallum Cancer Centre | 2020
This is an unselected part of about 18,000 reagents tested. 790 of them (4.4%) count as active. 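Calls rest on a combination of fold-change classes in drug and vehicle arms, not all shown here.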

Screen: 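Which gene losses make BRAF-mutant melanoma cells more responsive to vemurafenib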 (primary screen)
System: human WM266.4 melanoma cells (BRAF V600 mutant)
Reagent: siRNA pool against human genes, 40 nM
Time to read-out: 96 h from transfection to read-out
Challenge: vemurafenib 300 nM (about IC25), added 48 h after transfection, for 48 h; comparison arm got DMSO vehicle only
Measured: 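Ratios to non-targeting siRNA for cell gain, counted as DAPI nuclei after minus before drug and averaged over two replicates, and for absorbance-read medium lactate per cell; both binned into fold-change classes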
Direction: cell gain with vemurafenib: higher = more cell gain than with non-targeting siRNA; lactate per cell with vemurafenib: higher = more lactate made per cell
Hit rule: 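Enhancement is called by pairing each knock-down's vehicle-arm and drug-arm fold-change classes for viability or glycolysis; which class combinations qualify is not given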
Meaning of the calls: active = enhances vemurafenib effect; inactive = no enhancement seen

gene knocked down | cell gain with vemurafenib | lactate per cell with vemurafenib | Call
TOP2A (DNA topoisomerase II alpha) | 0.34 | 1.05 | inactive
VSIR (V-set immunoregulatory receptor) | 0.54 | 1.88 | inactive
TMX1 (thioredoxin related transmembrane protein 1) | 0.75 | 0.84 | inactive
CPN1 (carboxypeptidase N subunit 1) | 1.19 | 1.02 | inactive
XIAP (X-linked inhibitor of apoptosis) | 0.85 | 0.64 | active
SLC35F5 | 0.73 | 0.76 | inactive
JMJD4 (jumonji domain containing 4) | 0.19 | 1.23 | inactive
TLN2 (talin 2) | 0.53 | 0.58 | inactive
FMO3 (flavin containing dimethylaniline monoxygenase 3) | 0.67 | 0.82 | inactive
CLDN20 (claudin 20) | 1.01 | 0.82 | inactive
TENT5B (terminal nucleotidyltransferase 5B) | 1.08 | 0.74 | inactive
BPIFB1 (BPI fold containing family B member 1) | 0.09 | 0.29 | active
OR5A2 (olfactory receptor family 5 subfamily A member 2) | 0.57 | 0.62 | inactive
FBXO27 (F-box protein 27) | 0.29 | 1.77 | inactive
RPL30 (ribosomal protein L30) | 0 | 1.66 | inactive
ANAPC1 (anaphase promoting complex subunit 1) | 0.53 | 0.4 | active
HOXD10 (homeobox D10) | 0.79 | 0.56 | inactive
TIE1 | 0.41 | 1.47 | inactive
LRTM1 (leucine rich repeat transmembrane protein 1) | 1.06 | 0.74 | inactive
MPPED1 (metallophosphoesterase domain containing 1) | 0.46 | 1.75 | inactive
ZNF436-AS1 (ZNF436 antisense RNA 1) | 1.28 | 0.6 | inactive
MARK4 (microtubule affinity regulating kinase 4) | 0.18 | 1.08 | inactive
NSUN6 (NOP2/Sun RNA methyltransferase 6) | 0.47 | 1.36 | inactive
VAMP5 (vesicle associated membrane protein 5) | 0.6 | 0.65 | inactive
MYPN (myopalladin) | 0.28 | 1 | inactive
PHOSPHO2 (phosphatase, orphan 2) | 0.78 | 0.8 | inactive
COQ2 (coenzyme Q2, polyprenyltransferase) | 0.48 | 0.82 | inactive
EIF3D (eukaryotic translation initiation factor 3 subunit D) | 0.37 | 0.82 | inactive
ZNF121 (zinc finger protein 121) | 0.98 | 0.64 | inactive
NWD1 (NACHT and WD repeat domain containing 1) | 0.27 | 0.62 | inactive
ADARB1 (adenosine deaminase RNA specific B1) | 0.33 | 1.9 | inactive
ZFYVE1 (zinc finger FYVE-type containing 1) | 0.86 | 0.33 | inactive
APPBP2 (amyloid beta precursor protein binding protein 2) | 0.71 | 0.68 | inactive
NBPF9 (NBPF member 9) | 0.87 | 0.78 | inactive
STAT3 (signal transducer and activator of transcription 3) | 0.4 | 1.87 | inactive
DCLK1 (doublecortin like kinase 1) | 0.57 | 1.35 | inactive
NKX2-5 (NK2 homeobox 5) | 0.96 | 0.61 | inactive
ABRAXAS2 (abraxas 2, BRISC complex subunit) | 0.58 | 0.86 | inactive
OR10T2 (olfactory receptor family 10 subfamily T member 2) | 0.33 | 0.68 | inactive
CABIN1 (calcineurin binding protein 1) | 0.53 | 0.92 | inactive
ZC3HAV1 (zinc finger CCCH-type containing, antiviral 1) | 0.71 | 0.72 | inactive
HLA-DPA1 (major histocompatibility complex, class II, DP alpha 1) | 0.68 | 0.82 | inactive
SCG2 (secretogranin II) | 0.75 | 0.8 | inactive
PTPRS (protein tyrosine phosphatase receptor type S) | 0.31 | 0.4 | inactive
DYDC2 (DPY30 domain containing 2) | 0.48 | 0.84 | inactive
SFTPD (surfactant protein D) | 0.45 | 1.55 | inactive
CYTL1 (cytokine like 1) | 0.66 | 0.88 | inactive
DNAH9 (dynein axonemal heavy chain 9) | 0.97 | 0.76 | inactive
SPAG1 (sperm associated antigen 1) | -0.13 | 1.82 | inactive
ZNF256 (zinc finger protein 256) | 0.45 | 0.98 | inactive
PLD5 (phospholipase D family member 5) | 0.63 | 1.14 | inactive
CHMP5 (charged multivesicular body protein 5) | 0.83 | 0.74 | inactive
PLEKHG6 (pleckstrin homology and RhoGEF domain containing G6) | 0.76 | 0.98 | inactive
SLC9A4 | 0.43 | 1.42 | inactive
PANX2 (pannexin 2) | 0.6 | 1.54 | inactive
IDS (iduronate 2-sulfatase) | 0.23 | 1.56 | inactive
GCDH (glutaryl-CoA dehydrogenase) | 0.86 | 1.36 | inactive
AGPS (alkylglycerone phosphate synthase) | 0.15 | 2.09 | inactive
UGT1A3 (UDP glucuronosyltransferase family 1 member A3) | 1.1 | 0.49 | inactive
CLIP3 (CAP-Gly domain containing linker protein 3) | 1.13 | 0.94 | inactive
SEL1L3 (SEL1L family member 3) | 0.59 | 0.42 | active
CTDSP1 (CTD small phosphatase 1) | 0.6 | 0.83 | inactive
SLC6A1 | 0.47 | 0.86 | inactive
HSPA1L (heat shock protein family A (Hsp70) member 1 like) | 0.11 | 1.31 | inactive
TBPL2 (TATA-box binding protein like 2) | 0.91 | 1.44 | inactive
LIM2 (lens intrinsic membrane protein 2) | 0.43 | 1.6 | inactive
FCGR2C (Fc gamma receptor IIc (gene/pseudogene)) | 0.33 | 1.72 | inactive
HRH3 (histamine receptor H3) | 1.02 | 0.64 | inactive
FUOM (fucose mutarotase) | 1.14 | 0.7 | inactive
LYPLA2 (lysophospholipase 2) | 0.58 | 1.22 | inactive
ZEB2 (zinc finger E-box binding homeobox 2) | 0.85 | 1.04 | inactive
PDLIM3 (PDZ and LIM domain 3) | -0.02 | 3.34 | inactive
IGF1R (insulin like growth factor 1 receptor) | 0.66 | 0.94 | inactive
SAP30 (Sin3A associated protein 30) | 1.19 | 0.32 | inactive
ZBTB49 (zinc finger and BTB domain containing 49) | 0.8 | 0.54 | inactive
CCDC69 (coiled-coil domain containing 69) | 0.75 | 0.64 | inactive
C1orf94 (chromosome 1 open reading frame 94) | 0.67 | 0.78 | inactive
EPB41L1 (erythrocyte membrane protein band 4.1 like 1) | 0.3 | 1.12 | inactive
CSF1R (colony stimulating factor 1 receptor) | 0.49 | 1.48 | inactive
NDUFAF2 (NADH:ubiquinone oxidoreductase complex assembly factor 2) | 0.78 | 0.63 | inactive
SPTB (spectrin beta, erythrocytic) | 0.24 | 0.73 | inactive
OR51G1 (olfactory receptor family 51 subfamily G member 1) | 0.64 | 0.43 | inactive
CRMP1 (collapsin response mediator protein 1) | 1.11 | 1.09 | inactive
RNF34 (ring finger protein 34) | 0.32 | 0.8 | inactive
HYAL4 (hyaluronidase 4) | -0.1 | 1.93 | inactive
PARD6A (par-6 family cell polarity regulator alpha) | 0.34 | 0.8 | inactive
MAT1A (methionine adenosyltransferase 1A) | 0.88 | 0.28 | inactive
SPIN2B (spindlin family member 2B) | 0.68 | 0.59 | inactive
C12orf42 (chromosome 12 open reading frame 42) | 1 | 0.52 | inactive
GBP7 (guanylate binding protein 7) | 0.63 | 0.34 | inactive
TUBB7P (tubulin beta 7 pseudogene) | 0.09 | 1.84 | inactive
TNFRSF1A (TNF receptor superfamily member 1A) | 0.71 | 0.74 | inactive
DDOST | 0.87 | 0.6 | inactive
ASH1L (ASH1 like histone lysine methyltransferase) | 0.4 | 0.74 | inactive
XIRP2 (xin actin binding repeat containing 2) | 1.13 | 1.04 | inactive
BCLAF3 (BCLAF1 and THRAP3 family member 3) | 1.13 | 0.4 | inactive
UGT1A6 (UDP glucuronosyltransferase family 1 member A6) | 0.93 | 0.68 | inactive
TPSD1 (tryptase delta 1) | 0.83 | 0.97 | inactive
GOLGA2 (golgin A2) | 0.22 | 0.36 | active
OR1B1 (olfactory receptor family 1 subfamily B member 1) | 0.21 | 0.87 | inactive
TMEM116 (transmembrane protein 116) | 0.28 | 1.67 | inactive
RMDN3 (regulator of microtubule dynamics 3) | 0.4 | 1.34 | inactive
VPS37B (VPS37B subunit of ESCRT-I) | 0.66 | 1.73 | inactive
CYP3A5 (cytochrome P450 family 3 subfamily A member 5) | 0.46 | 0.68 | inactive
LRRC17 (leucine rich repeat containing 17) | 0.68 | 1.23 | inactive
NIPSNAP2 (nipsnap homolog 2) | 0.71 | 0.54 | inactive
ASXL1 (ASXL transcriptional regulator 1) | 1.03 | 0.6 | inactive
